Measurements reported in the supplement of paper PMC7824004.
The other results are listed elsewhere or left out. The data scatter; read single values as rough.

What follows are compounds tested on Candida albicans SN425 (assay: biofilm OD600 B-score; higher = more biofilm (less inhibition)). Conditions: 10 µM; assay detail: High-throughput adherence inhibition optical density biofilm assay with C. albicans SN425 in RPMI-1640/MOPS pH 7.0, 384-well plates. ….
Experimental: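 High-throughput adherence inhibition optical density biofilm assay with C. albicans SN425 in RPMI-1640/MOPS pH 7.0, 384-well plates. Compound (10 µM) was present only during the 90 min adherence step, then washed out, and the biofilm grew 24 h without compound. Biofilm was read as OD600 after removing the media. Scores are the difference from the mean in standard deviations and the plate B-score.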

Row | Compound | biofilm OD600 B-score
1 | Cc1cccnc1NC(=O)C(C)Oc1cccc(Cl)c1 (stereo unspecified) | 0.955
2 | Cc1ccc(C(=O)NCCSc2ccccn2)cc1 | -0.0356
3 | O=C(Nc1ccccc1)NC1CCCC1 | 0.331
4 | Cc1ccc(N2CC(C(=O)NCC3CCCO3)CC2=O)cc1 (stereo unspecified) | 4.13
5 | O=C(Nc1nc(-c2ccccc2)cs1)c1ccncc1 | -0.0846
6 | CCCc1nc2ccccc2c(=O)n1N | 2.81
7 | OCCN(Cc1ccccc1)CC1CC=CCC1 (stereo unspecified) | -2.91
8 | CCOc1ccccc1OCCOCCN1CC(C)OC(C)C1 (stereo unspecified) | -2.41
9 | COCC(C)NS(=O)(=O)c1ccc(OC)cc1 (stereo unspecified) | -2.37
10 | CC1CN(CCC(=O)Nc2ccc3c(c2)OCO3)CC(C)O1 (stereo unspecified) | 0.0123
11 | COc1ccccc1N1CCN(CCC(=O)NN)CC1 | -0.0843
12 | CCC(Oc1ccccc1)C(=O)Nc1ccccc1OC (stereo unspecified) | 1.76
13 | CC(C)Oc1ccccc1NC(=O)CSc1nnnn1C | -0.0794
14 | O=S(=O)(NC1CC2CCC1C2)c1ccccc1 (stereo unspecified) | 2.19
15 | OC(COc1ccc(Br)cc1)CN1CCOCC1 (stereo unspecified) | 0.61
16 | O=C(Nc1ccc(Cl)c(Cl)c1)c1cnccn1 | -0.809

Entries listed so far with an aryl methoxy group:
Row | Compound | biofilm OD600 B-score
9 | COCC(C)NS(=O)(=O)c1ccc(OC)cc1 (stereo unspecified) | -2.37
11 | COc1ccccc1N1CCN(CCC(=O)NN)CC1 | -0.0843
12 | CCC(Oc1ccccc1)C(=O)Nc1ccccc1OC (stereo unspecified) | 1.76
